# Measured values as given in the supplement of paper PMC8728848.
# The list shows a part of the results.
# How the values were obtained:
# Assay in all cases: glycan array binding signal (z-score within array); higher = stronger binding
# Details in all cases: glycan notation: IUPAC condensed, linker removed
# [1] = target: GlcNAc(b1-2)[GlcNAc(b1-4)]Man(a1-3)[GlcNAc(b1-4)][GlcNAc(b1-2)[GlcNAc(b1-6)]Man(a1-6)]Man(b1-4)GlcNAc(b1-4)[Fuc(a1-6)]GlcNAc
# Summary of the method: (§1)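 The binding signal is a Z-score computed within each array. Data were drawn from 3228 arrays in the Consortium for Functional Glycomics database, restricted to those with a known protein sequence. Scores were averaged over arrays of the same protein sequence at different concentrations or buffers, and over linkers, and negative values can be taken as non-binding.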
# [2] = target: GlcNAc(b1-2)[GlcNAc(b1-6)]Man(a1-6)[GlcNAc(b1-2)Man(a1-3)]Man(b1-4)GlcNAc(b1-4)GlcNAc
# Summary of the method: as §1
# [3] = target: GlcNAc(b1-2)[GlcNAc(b1-6)]Man(a1-6)[GlcNAc(b1-2)Man(a1-3)]Man(b1-4)GlcNAc(b1-4)[Fuc(a1-6)]GlcNAc
# Summary of the method: as §1
# [4] = target: GlcNAc(b1-2)[GlcNAc(b1-6)]Man(a1-6)[GlcNAc(b1-4)][GlcNAc(b1-2)Man(a1-3)]Man(b1-4)GlcNAc(b1-4)GlcNAc
# Summary of the method: as §1
# [5] = target: GlcNAc(b1-3)Fuc
# Summary of the method: as §1
# [6] = target: GlcNAc(b1-3)Gal
# Summary of the method: as §1
# [7] = target: GlcNAc(b1-3)Gal(b1-3)GalNAc
# Summary of the method: as §1
# [8] = target: GlcNAc(b1-3)Gal(b1-4)Glc
# Summary of the method: as §1
# [9] = target: GlcNAc(b1-3)Gal(b1-4)GlcNAc
# Summary of the method: as §1
# [10] = target: GlcNAc(b1-3)Gal(b1-4)GlcNAc(b1-2)Man(a1-3)[GlcNAc(b1-3)Gal(b1-4)GlcNAc(b1-2)Man(a1-6)]Man(b1-4)GlcNAc(b1-4)GlcNAc
# Summary of the method: as §1
# [11] = target: GlcNAc(b1-3)Gal(b1-4)GlcNAc(b1-2)Man(a1-3)[GlcNAc(b1-3)Gal(b1-4)GlcNAc(b1-2)Man(a1-6)]Man(b1-4)GlcNAc(b1-4)[Fuc(a1-6)]GlcNAc
# Summary of the method: as §1
# [12] = target: GlcNAc(b1-3)Gal(b1-4)GlcNAc(b1-2)[GlcNAc(b1-3)Gal(b1-4)GlcNAc(b1-6)]Man(a1-6)[GlcNAc(b1-3)Gal(b1-4)GlcNAc(b1-2)Man(a1-3)]Man(b1-4)GlcNAc(b1-4)GlcNAc
# Summary of the method: as §1
# [13] = target: GlcNAc(b1-3)Gal(b1-4)GlcNAc(b1-3)Gal(b1-4)GlcNAc
# Summary of the method: as §1
# [14] = target: GlcNAc(b1-3)Gal(b1-4)GlcNAc(b1-3)Gal(b1-4)GlcNAc(b1-2)Man(a1-3)[GlcNAc(b1-3)Gal(b1-4)GlcNAc(b1-3)Gal(b1-4)GlcNAc(b1-2)Man(a1-6)]Man(b1-4)GlcNAc(b1-4)GlcNAc
# Summary of the method: as §1
# [15] = target: GlcNAc(b1-3)Gal(b1-4)GlcNAc(b1-3)Gal(b1-4)GlcNAc(b1-2)Man(a1-3)[GlcNAc(b1-3)Gal(b1-4)GlcNAc(b1-3)Gal(b1-4)GlcNAc(b1-2)Man(a1-6)]Man(b1-4)GlcNAc(b1-4)[Fuc(a1-6)]GlcNAc
# Summary of the method: as §1
# [16] = target: GlcNAc(b1-3)Gal(b1-4)GlcNAc(b1-3)Gal(b1-4)GlcNAc(b1-2)[GlcNAc(b1-3)Gal(b1-4)GlcNAc(b1-3)Gal(b1-4)GlcNAc(b1-6)]Man(a1-6)[GlcNAc(b1-3)Gal(b1-4)GlcNAc(b1-3)Gal(b1-4)GlcNAc(b1-2)Man(a1-3)]Man(b1-4)GlcNAc(b1-4)[Fuc(a1-6)]GlcNAc
# Summary of the method: as §1
# [17] = target: GlcNAc(b1-3)Gal(b1-4)GlcNAc(b1-3)Gal(b1-4)GlcNAc(b1-3)Gal(b1-4)GlcNAc(b1-2)Man(a1-3)[GlcNAc(b1-3)Gal(b1-4)GlcNAc(b1-3)Gal(b1-4)GlcNAc(b1-3)Gal(b1-4)GlcNAc(b1-2)Man(a1-6)]Man(b1-4)GlcNAc(b1-4)GlcNAc
# Summary of the method: as §1
# [18] = target: GlcNAc(b1-3)Gal(b1-4)GlcNAc(b1-3)Gal(b1-4)GlcNAc(b1-3)Gal(b1-4)GlcNAc(b1-2)Man(a1-3)[GlcNAc(b1-3)Gal(b1-4)GlcNAc(b1-3)Gal(b1-4)GlcNAc(b1-3)Gal(b1-4)GlcNAc(b1-2)Man(a1-6)]Man(b1-4)GlcNAc(b1-4)[Fuc(a1-6)]GlcNAc
# Summary of the method: as §1
# [19] = target: GlcNAc(b1-3)Gal(b1-4)GlcNAc(b1-3)Gal(b1-4)GlcNAc(b1-3)Gal(b1-4)GlcNAc(b1-2)[GlcNAc(b1-3)Gal(b1-4)GlcNAc(b1-3)Gal(b1-4)GlcNAc(b1-3)Gal(b1-4)GlcNAc(b1-6)]Man(a1-6)[GlcNAc(b1-3)Gal(b1-4)GlcNAc(b1-3)Gal(b1-4)GlcNAc(b1-3)Gal(b1-4)GlcNAc(b1-2)Man(a1-3)]Man(b1-4)GlcNAc(b1-4)[Fuc(a1-6)]GlcNAc
# Summary of the method: as §1
# [20] = target: GlcNAc(b1-3)Gal(b1-4)GlcNAc(b1-3)Gal(b1-4)GlcNAc(b1-3)Gal(b1-4)GlcNAc(b1-3)Gal(b1-4)GlcNAc(b1-2)Man(a1-3)[GlcNAc(b1-3)Gal(b1-4)GlcNAc(b1-3)Gal(b1-4)GlcNAc(b1-3)Gal(b1-4)GlcNAc(b1-3)Gal(b1-4)GlcNAc(b1-2)Man(a1-6)]Man(b1-4)GlcNAc(b1-4)GlcNAc
# Summary of the method: as §1
# [21] = target: GlcNAc(b1-3)Gal(b1-4)GlcNAc(b1-3)Gal(b1-4)GlcNAc(b1-3)Gal(b1-4)GlcNAc(b1-3)Gal(b1-4)GlcNAc(b1-2)Man(a1-3)[GlcNAc(b1-3)Gal(b1-4)GlcNAc(b1-3)Gal(b1-4)GlcNAc(b1-3)Gal(b1-4)GlcNAc(b1-3)Gal(b1-4)GlcNAc(b1-2)Man(a1-6)]Man(b1-4)GlcNAc(b1-4)[Fuc(a1-6)]GlcNAc
# Summary of the method: as §1
# [22] = target: GlcNAc(b1-3)Gal(b1-4)GlcNAc(b1-3)Gal(b1-4)GlcNAc(b1-3)Gal(b1-4)GlcNAc(b1-3)Gal(b1-4)GlcNAc(b1-2)[GlcNAc(b1-3)Gal(b1-4)GlcNAc(b1-3)Gal(b1-4)GlcNAc(b1-3)Gal(b1-4)GlcNAc(b1-3)Gal(b1-4)GlcNAc(b1-6)]Man(a1-6)[GlcNAc(b1-3)Gal(b1-4)GlcNAc(b1-3)Gal(b1-4)GlcNAc(b1-3)Gal(b1-4)GlcNAc(b1-3)Gal(b1-4)GlcNAc(b1-2)Man(a1-3)]Man(b1-4)GlcNAc(b1-4)[Fuc(a1-6)]GlcNAc
# Summary of the method: as §1
# [23] = target: GlcNAc(b1-3)Gal(b1-4)GlcNAc(b1-3)Gal(b1-4)GlcNAc(b1-3)GalNAc
# Summary of the method: as §1
# [24] = target: GlcNAc(b1-3)Gal(b1-4)GlcNAc(b1-3)GalNAc
# Summary of the method: as §1
# [25] = target: GlcNAc(b1-3)Gal(b1-4)GlcNAc(b1-3)[GlcNAc(b1-3)Gal(b1-4)GlcNAc(b1-3)]GalNAc
# Summary of the method: as §1
# [26] = target: GlcNAc(b1-3)Gal(b1-4)GlcNAc(b1-6)[Gal(b1-3)]GalNAc
# Summary of the method: as §1
# [27] = target: GlcNAc(b1-3)Gal(b1-4)GlcNAc(b1-6)[GlcNAc(b1-3)Gal(b1-3)]GalNAc
# Summary of the method: as §1
# [28] = target: GlcNAc(b1-3)Gal(b1-4)GlcNAc(b1-6)[GlcNAc(b1-3)]Gal(b1-4)GlcNAc
# Summary of the method: as §1
# [29] = target: GlcNAc(b1-3)GalNAc
# Summary of the method: as §1
# [30] = target: GlcNAc(b1-3)Man
# Summary of the method: as §1
# [31] = target: GlcNAc(b1-3)[GlcNAc(b1-4)][GlcNAc(b1-6)]GlcNAc
# Summary of the method: as §1
# [32] = target: GlcNAc(b1-3)[GlcNAc(b1-6)]Gal(b1-4)GlcNAc
# Summary of the method: as §1
# [33] = target: GlcNAc(b1-3)[GlcNAc(b1-6)]GalNAc
# Summary of the method: as §1
# [34] = target: GlcNAc(b1-4)Gal(b1-4)GlcNAc
# Summary of the method: as §1
# [35] = target: GlcNAc(b1-4)GlcNAc
# Summary of the method: as §1
# [36] = target: GlcNAc(b1-4)GlcNAc(b1-4)GlcNAc
# Summary of the method: as §1
# [37] = target: GlcNAc(b1-4)GlcNAc(b1-4)GlcNAc(b1-4)GlcNAc(b1-4)GlcNAc
# Summary of the method: as §1
# [38] = target: GlcNAc(b1-4)GlcNAc(b1-4)GlcNAc(b1-4)GlcNAc(b1-4)GlcNAc(b1-4)GlcNAc
# Summary of the method: as §1
binder,measurement,setting,value
FliC (Clostridium difficile) (protein) MRVNTNVSALIANNQMGRNVNGQSKSMEKLSSGVRIKRAADDAAGLAISEKMRAQIKGLDQAGRNVQDGISVVQTAEGSLEETGNILQRMRTLSLQSANEINNTEEREKIADELTQLKDEIERISSSTEFNGKKLLDGTSSTIRLQVGASYGTNVSGTSNNNNEIKIQLVNTASIMASAGITTASIGSMKAGGTTGTDAAKTMVSSLDAALKSLNSSRAKLGAQQNRLESTQNNLNNTLENVTAAESRIRDTDVASEMVNLSKMNILVQASQSMLAQANQQPQGVLQLLG,glycan array binding signal (z-score),[1],-0.765
same,glycan array binding signal (z-score),[2],-0.039
same,glycan array binding signal (z-score),[3],0.19
same,glycan array binding signal (z-score),[4],-0.459
same,glycan array binding signal (z-score),[5],-0.83
same,glycan array binding signal (z-score),[6],-0.334
same,glycan array binding signal (z-score),[7],-0.179
same,glycan array binding signal (z-score),[8],-0.085
same,glycan array binding signal (z-score),[9],-0.45
same,glycan array binding signal (z-score),[10],-0.26
same,glycan array binding signal (z-score),[11],0.034
same,glycan array binding signal (z-score),[12],3
same,glycan array binding signal (z-score),[13],-0.294
same,glycan array binding signal (z-score),[14],0.372
same,glycan array binding signal (z-score),[15],1.04
same,glycan array binding signal (z-score),[16],0.567
same,glycan array binding signal (z-score),[17],0.067
same,glycan array binding signal (z-score),[18],-0.149
same,glycan array binding signal (z-score),[19],-0.165
same,glycan array binding signal (z-score),[20],-0.244
same,glycan array binding signal (z-score),[21],-0.369
same,glycan array binding signal (z-score),[22],0.167
same,glycan array binding signal (z-score),[23],-0.501
same,glycan array binding signal (z-score),[24],-0.25
same,glycan array binding signal (z-score),[25],-0.998
same,glycan array binding signal (z-score),[26],-0.452
same,glycan array binding signal (z-score),[27],-0.342
same,glycan array binding signal (z-score),[28],-0.604
same,glycan array binding signal (z-score),[29],-0.216
same,glycan array binding signal (z-score),[30],-0.124
same,glycan array binding signal (z-score),[31],-0.972
same,glycan array binding signal (z-score),[32],-0.057
same,glycan array binding signal (z-score),[33],0.144
same,glycan array binding signal (z-score),[34],-0.756
same,glycan array binding signal (z-score),[35],-0.102
same,glycan array binding signal (z-score),[36],-0.293
same,glycan array binding signal (z-score),[37],0.186
same,glycan array binding signal (z-score),[38],-0.253

# Some of the entries so far, as tab-separated lines:
binder	measurement	setting	value
FliC (Clostridium difficile) (protein) MRVNTNVSALIANNQMGRNVNGQSKSMEKLSSGVRIKRAADDAAGLAISEKMRAQIKGLDQAGRNVQDGISVVQTAEGSLEETGNILQRMRTLSLQSANEINNTEEREKIADELTQLKDEIERISSSTEFNGKKLLDGTSSTIRLQVGASYGTNVSGTSNNNNEIKIQLVNTASIMASAGITTASIGSMKAGGTTGTDAAKTMVSSLDAALKSLNSSRAKLGAQQNRLESTQNNLNNTLENVTAAESRIRDTDVASEMVNLSKMNILVQASQSMLAQANQQPQGVLQLLG	glycan array binding signal (z-score)	[3]	0.19
same	glycan array binding signal (z-score)	[4]	-0.459
